Results published in PMC11371642.
These are yes or no findings as the source states them, for the method shown. In cells and extracts the contact can be indirect. Some results given as binding are weak or reduced against the parent protein; the word gives no strength.

By UniProt entry, the sequences of proteins in these tests, tags left out.
UniProt P49841: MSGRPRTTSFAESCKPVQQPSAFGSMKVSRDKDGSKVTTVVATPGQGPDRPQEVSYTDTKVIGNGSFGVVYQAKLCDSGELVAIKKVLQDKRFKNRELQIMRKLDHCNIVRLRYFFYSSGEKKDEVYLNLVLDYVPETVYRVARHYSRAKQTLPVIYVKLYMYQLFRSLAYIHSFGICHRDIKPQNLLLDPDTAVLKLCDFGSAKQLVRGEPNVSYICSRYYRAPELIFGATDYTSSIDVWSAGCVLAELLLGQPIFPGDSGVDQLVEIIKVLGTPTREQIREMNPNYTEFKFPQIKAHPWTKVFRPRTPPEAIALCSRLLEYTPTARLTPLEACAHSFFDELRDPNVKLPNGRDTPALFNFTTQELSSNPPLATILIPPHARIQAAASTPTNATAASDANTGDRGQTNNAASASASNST
UniProt Q9UBN7: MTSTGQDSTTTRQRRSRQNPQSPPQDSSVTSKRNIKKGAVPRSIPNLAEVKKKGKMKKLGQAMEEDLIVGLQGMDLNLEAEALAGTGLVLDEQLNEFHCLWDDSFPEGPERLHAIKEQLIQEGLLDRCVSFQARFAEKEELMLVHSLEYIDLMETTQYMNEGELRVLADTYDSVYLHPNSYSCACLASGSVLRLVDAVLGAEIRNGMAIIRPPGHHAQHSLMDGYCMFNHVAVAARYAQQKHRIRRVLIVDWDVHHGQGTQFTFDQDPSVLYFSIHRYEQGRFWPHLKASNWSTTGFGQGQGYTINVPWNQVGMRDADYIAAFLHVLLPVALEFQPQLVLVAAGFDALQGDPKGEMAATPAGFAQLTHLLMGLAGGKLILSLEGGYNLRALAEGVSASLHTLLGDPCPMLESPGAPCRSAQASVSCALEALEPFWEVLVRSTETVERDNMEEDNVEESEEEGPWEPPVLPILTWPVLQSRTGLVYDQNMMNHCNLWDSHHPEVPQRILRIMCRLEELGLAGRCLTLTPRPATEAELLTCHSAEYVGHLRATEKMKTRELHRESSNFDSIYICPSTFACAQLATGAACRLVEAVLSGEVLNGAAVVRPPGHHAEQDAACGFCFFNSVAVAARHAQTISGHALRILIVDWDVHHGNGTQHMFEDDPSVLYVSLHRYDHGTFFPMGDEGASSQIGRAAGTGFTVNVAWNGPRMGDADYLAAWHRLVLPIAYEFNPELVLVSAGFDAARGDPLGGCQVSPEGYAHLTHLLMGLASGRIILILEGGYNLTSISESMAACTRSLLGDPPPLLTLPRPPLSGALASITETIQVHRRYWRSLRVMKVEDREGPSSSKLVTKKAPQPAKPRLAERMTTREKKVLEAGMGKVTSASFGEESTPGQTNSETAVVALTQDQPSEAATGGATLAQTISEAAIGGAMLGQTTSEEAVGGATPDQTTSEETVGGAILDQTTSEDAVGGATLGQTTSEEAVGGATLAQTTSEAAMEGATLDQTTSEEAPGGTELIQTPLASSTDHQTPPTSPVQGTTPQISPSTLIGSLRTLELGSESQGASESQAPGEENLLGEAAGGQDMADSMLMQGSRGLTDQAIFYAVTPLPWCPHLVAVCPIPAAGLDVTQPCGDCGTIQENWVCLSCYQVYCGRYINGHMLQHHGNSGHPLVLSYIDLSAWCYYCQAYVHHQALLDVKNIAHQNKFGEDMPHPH

Target: Glycogen synthase kinase-3β (human (endogenous in ES/hiPSC-derived SPNs)) (UniProt P49841)
Assay: co-IP; lysate of vehicle- and ketamine-treated SPNs in ice-cold immunoprecipitation buffer; rabbit anti-GSK-3β antibody overnight at 4 °C, Protein A/G agarose 4 h at 4 °C; rabbit IgG as negative control; detection by Western blotting

binding: binds
Substance: Histone deacetylase 6 (from UniProt Q9UBN7 1-1215) (enzyme)
